Results taken from the supplement of paper PMC8728848.
Some of the results follow.

Tests used:
Assay in all cases: glycan array binding signal (z-score within array); higher = stronger binding
Details in all cases: glycan notation: IUPAC condensed, linker removed
[1] = biological target: Neu5Ac(a2-3)Gal(b1-4)GlcNAc(b1-6)GalNAc
Method in brief: (§1)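 From the Consortium for Functional Glycomics database, 3228 arrays were curated, keeping only those whose protein sequence was available. Binding is given as a within-array Z-score averaged across arrays sharing a protein sequence and across linkers. Negative Z-scores can be read as non-binding.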

[2] = biological target: Neu5Ac(a2-3)Gal(b1-4)GlcNAc(b1-6)[Gal(b1-3)]GalNAc
Method in brief: as §1

[3] = biological target: Neu5Ac(a2-3)Gal(b1-4)GlcNAc(b1-6)[Neu5Ac(a2-3)Gal(b1-3)]GalNAc
Method in brief: as §1

[4] = biological target: Neu5Ac(a2-3)Gal(b1-4)GlcNAc6S
Method in brief: as §1

[5] = biological target: Neu5Ac(a2-3)Gal(b1-4)[Fuc(a1-3)]GlcNAc
Method in brief: as §1

[6] = biological target: Neu5Ac(a2-3)Gal(b1-4)[Fuc(a1-3)]GlcNAc(b1-2)Man
Method in brief: as §1

[7] = biological target: Neu5Ac(a2-3)Gal(b1-4)[Fuc(a1-3)]GlcNAc(b1-3)Gal
Method in brief: as §1

[8] = biological target: Neu5Ac(a2-3)Gal(b1-4)[Fuc(a1-3)]GlcNAc(b1-3)Gal(b1-4)GlcNAc
Method in brief: as §1

[9] = biological target: Neu5Ac(a2-3)Gal(b1-4)[Fuc(a1-3)]GlcNAc(b1-3)Gal(b1-4)[Fuc(a1-3)]GlcNAc(b1-3)Gal(b1-4)[Fuc(a1-3)]GlcNAc
Method in brief: as §1

[10] = biological target: Neu5Ac(a2-3)Gal(b1-4)[Fuc(a1-3)]GlcNAc(b1-3)GalNAc
Method in brief: as §1

[11] = biological target: Neu5Ac(a2-3)Gal(b1-4)[Fuc(a1-3)]GlcNAc(b1-6)[Gal(b1-3)]GalNAc
Method in brief: as §1

[12] = biological target: Neu5Ac(a2-3)Gal(b1-4)[Fuc(a1-3)]GlcNAc(b1-6)[Neu5Ac(a2-3)Gal(b1-3)]GalNAc
Method in brief: as §1

[13] = biological target: Neu5Ac(a2-3)Gal(b1-4)[Fuc(a1-3)]GlcNAc6S
Method in brief: as §1

[14] = biological target: Neu5Ac(a2-3)Gal6S(b1-4)GlcNAc
Method in brief: as §1

[15] = biological target: Neu5Ac(a2-3)Gal6S(b1-4)[Fuc(a1-3)]GlcNAc
Method in brief: as §1

Neu5Ac(a2-3)GalNAc = biological target: Neu5Ac(a2-3)GalNAc
Method in brief: as §1

[16] = biological target: Neu5Ac(a2-3)GalNAc(b1-4)GlcNAc
Method in brief: as §1

[17] = biological target: Neu5Ac(a2-3)[GalNAc(b1-4)]Gal(b1-4)Glc
Method in brief: as §1

[18] = biological target: Neu5Ac(a2-3)[GalNAc(b1-4)]Gal(b1-4)GlcNAc
Method in brief: as §1

[19] = biological target: Neu5Ac(a2-3)[GalNAc(b1-4)]Gal(b1-4)GlcNAc(b1-3)GalNAc
Method in brief: as §1

[20] = biological target: Neu5Ac(a2-3)[Neu5Ac(a2-6)]GalNAc
Method in brief: as §1

Neu5Ac(a2-6)Gal = biological target: Neu5Ac(a2-6)Gal
Method in brief: as §1

[21] = biological target: Neu5Ac(a2-6)Gal(b1-3)GlcNAc(b1-3)[Gal(b1-4)GlcNAc(b1-6)]Gal(b1-4)Glc
Method in brief: as §1

Neu5Ac(a2-6)Gal(b1-4)Glc = biological target: Neu5Ac(a2-6)Gal(b1-4)Glc
Method in brief: as §1

[22] = biological target: Neu5Ac(a2-6)Gal(b1-4)GlcNAc
Method in brief: as §1

[23] = biological target: Neu5Ac(a2-6)Gal(b1-4)GlcNAc(b1-2)Man
Method in brief: as §1

[24] = biological target: Neu5Ac(a2-6)Gal(b1-4)GlcNAc(b1-2)Man(a1-3)Man(b1-4)GlcNAc(b1-4)GlcNAc
Method in brief: as §1

[25] = biological target: Neu5Ac(a2-6)Gal(b1-4)GlcNAc(b1-2)Man(a1-3)[Gal(b1-4)GlcNAc(b1-2)Man(a1-6)]Man(b1-4)GlcNAc(b1-4)GlcNAc
Method in brief: as §1

[26] = biological target: Neu5Ac(a2-6)Gal(b1-4)GlcNAc(b1-2)Man(a1-3)[GlcNAc(b1-2)Man(a1-6)]Man(b1-4)GlcNAc(b1-4)GlcNAc
Method in brief: as §1

[27] = biological target: Neu5Ac(a2-6)Gal(b1-4)GlcNAc(b1-2)Man(a1-3)[GlcNAc(b1-4)][Neu5Ac(a2-6)Gal(b1-4)GlcNAc(b1-2)Man(a1-6)]Man(b1-4)GlcNAc(b1-4)GlcNAc
Method in brief: as §1

[28] = biological target: Neu5Ac(a2-6)Gal(b1-4)GlcNAc(b1-2)Man(a1-3)[Man(a1-6)]Man(b1-4)GlcNAc(b1-4)GlcNAc
Method in brief: as §1

[29] = biological target: Neu5Ac(a2-6)Gal(b1-4)GlcNAc(b1-2)Man(a1-3)[Neu5Ac(a2-3)Gal(b1-4)GlcNAc(b1-2)Man(a1-6)]Man(b1-4)GlcNAc(b1-4)GlcNAc
Method in brief: as §1

[30] = biological target: Neu5Ac(a2-6)Gal(b1-4)GlcNAc(b1-2)Man(a1-3)[Neu5Ac(a2-6)Gal(b1-4)GlcNAc(b1-2)Man(a1-6)]Man(b1-4)GlcNAc(b1-4)GlcNAc
Method in brief: as §1

[31] = biological target: Neu5Ac(a2-6)Gal(b1-4)GlcNAc(b1-2)Man(a1-3)[Neu5Ac(a2-6)Gal(b1-4)GlcNAc(b1-2)Man(a1-6)]Man(b1-4)GlcNAc(b1-4)[Fuc(a1-6)]GlcNAc
Method in brief: as §1

[32] = biological target: Neu5Ac(a2-6)Gal(b1-4)GlcNAc(b1-2)Man(a1-6)Man(b1-4)GlcNAc(b1-4)GlcNAc
Method in brief: as §1

[33] = biological target: Neu5Ac(a2-6)Gal(b1-4)GlcNAc(b1-2)Man(a1-6)[Gal(b1-4)GlcNAc(b1-2)Man(a1-3)]Man(b1-4)GlcNAc(b1-4)GlcNAc
Method in brief: as §1

[34] = biological target: Neu5Ac(a2-6)Gal(b1-4)GlcNAc(b1-2)Man(a1-6)[GlcNAc(b1-2)Man(a1-3)]Man(b1-4)GlcNAc(b1-4)GlcNAc
Method in brief: as §1

[35] = biological target: Neu5Ac(a2-6)Gal(b1-4)GlcNAc(b1-2)Man(a1-6)[Man(a1-3)]Man(b1-4)GlcNAc(b1-4)GlcNAc
Method in brief: as §1

[36] = biological target: Neu5Ac(a2-6)Gal(b1-4)GlcNAc(b1-2)[Neu5Ac(a2-6)Gal(b1-4)GlcNAc(b1-4)]Man(a1-3)[GlcNAc(b1-4)][Neu5Ac(a2-6)Gal(b1-4)GlcNAc(b1-2)[Neu5Ac(a2-6)Gal(b1-4)GlcNAc(b1-6)]Man(a1-6)]Man(b1-4)GlcNAc(b1-4)GlcNAc
Method in brief: as §1

[37] = biological target: Neu5Ac(a2-6)Gal(b1-4)GlcNAc(b1-2)[Neu5Ac(a2-6)Gal(b1-4)GlcNAc(b1-4)]Man(a1-3)[GlcNAc(b1-4)][Neu5Ac(a2-6)Gal(b1-4)GlcNAc(b1-4)Man(a1-6)]Man(b1-4)GlcNAc(b1-4)GlcNAc
Method in brief: as §1

[38] = biological target: Neu5Ac(a2-6)Gal(b1-4)GlcNAc(b1-2)[Neu5Ac(a2-6)Gal(b1-4)GlcNAc(b1-6)]Man(a1-6)[Neu5Ac(a2-6)Gal(b1-4)GlcNAc(b1-2)Man(a1-3)][GlcNAc(b1-4)]Man(b1-4)GlcNAc(b1-4)GlcNAc
Method in brief: as §1

[39] = biological target: Neu5Ac(a2-6)Gal(b1-4)GlcNAc(b1-3)Gal(b1-3)GlcNAc
Method in brief: as §1

[40] = biological target: Neu5Ac(a2-6)Gal(b1-4)GlcNAc(b1-3)Gal(b1-4)GlcNAc
Method in brief: as §1

[41] = biological target: Neu5Ac(a2-6)Gal(b1-4)GlcNAc(b1-3)Gal(b1-4)GlcNAc(b1-2)Man(a1-3)[Neu5Ac(a2-6)Gal(b1-4)GlcNAc(b1-3)Gal(b1-4)GlcNAc(b1-2)Man(a1-6)]GalNAc
Method in brief: as §1

[42] = biological target: Neu5Ac(a2-6)Gal(b1-4)GlcNAc(b1-3)Gal(b1-4)GlcNAc(b1-3)Gal(b1-4)GlcNAc
Method in brief: as §1

[43] = biological target: Neu5Ac(a2-6)Gal(b1-4)GlcNAc(b1-3)Gal(b1-4)GlcNAc(b1-3)Gal(b1-4)GlcNAc(b1-2)Man(a1-3)[Neu5Ac(a2-6)Gal(b1-4)GlcNAc(b1-3)Gal(b1-4)GlcNAc(b1-3)Gal(b1-4)GlcNAc(b1-2)Man(a1-6)]GalNAc
Method in brief: as §1

B1: Clec18A (Homo sapiens) (protein)
chain: PFHTCDLRIDGDCFMVSSEADTYYRARMKCQRKGGVLAQIKRQKVQDILAFYLGRLETTNEVIDSDFETRNFWIGLTYKTAKDSFRWATGEHQAFTSFAFGQPDNHGFGNCVELQASAAFNWNDQRCKTRNRYICQ
B1 was tested. Which “glycan array binding signal (z-score)” value [1] did it give?
The value was 0.45.

And the “glycan array binding signal (z-score)” value [2]?
The value was -0.468.

And the “glycan array binding signal (z-score)” value [3]?
Its value is -0.986.

What about the “glycan array binding signal (z-score)” value [4] of the same binder?
The value was -0.515.

And the “glycan array binding signal (z-score)” value [5]?
The value was -0.808.

What about the “glycan array binding signal (z-score)” value [6] of the same binder?
Its value is -0.726.

What about the “glycan array binding signal (z-score)” value [7] of the same binder?
Its value is -0.809.

And the “glycan array binding signal (z-score)” value [8]?
The value was -0.075.

What about the “glycan array binding signal (z-score)” value [9] of the same binder?
The value was -0.159.

What about the “glycan array binding signal (z-score)” value [10] of the same binder?
The value was 0.176.

What about the “glycan array binding signal (z-score)” value [11] of the same binder?
Its value is 1.49.

And the “glycan array binding signal (z-score)” value [12]?
Its value is -0.44.

What about the “glycan array binding signal (z-score)” value [13] of the same binder?
The value was -0.788.

And the “glycan array binding signal (z-score)” value [14]?
The value was -0.482.

What about the “glycan array binding signal (z-score)” value [15] of the same binder?
Its value is -0.968.

And the “glycan array binding signal (z-score)” value (Neu5Ac(a2-3)GalNAc)?
The value was -0.792.

What about the “glycan array binding signal (z-score)” value [16] of the same binder?
The value was -0.815.

What about the “glycan array binding signal (z-score)” value [17] of the same binder?
Its value is 1.48.

And the “glycan array binding signal (z-score)” value [18]?
The value was 0.247.

What about the “glycan array binding signal (z-score)” value [19] of the same binder?
The value was 0.01.

What about the “glycan array binding signal (z-score)” value [20] of the same binder?
The value was -0.878.

What about the “glycan array binding signal (z-score)” value (Neu5Ac(a2-6)Gal) of the same binder?
Its value is -0.402.

What about the “glycan array binding signal (z-score)” value [21] of the same binder?
The value was 1.05.

What about the “glycan array binding signal (z-score)” value (Neu5Ac(a2-6)Gal(b1-4)Glc) of the same binder?
Its value is -0.205.

And the “glycan array binding signal (z-score)” value [22]?
The value was -0.101.

What about the “glycan array binding signal (z-score)” value [23] of the same binder?
The value was -0.605.

What about the “glycan array binding signal (z-score)” value [24] of the same binder?
Its value is 1.46.

What about the “glycan array binding signal (z-score)” value [25] of the same binder?
The value was 0.345.

And the “glycan array binding signal (z-score)” value [26]?
The value was 0.426.

And the “glycan array binding signal (z-score)” value [27]?
The value was 1.43.

What about the “glycan array binding signal (z-score)” value [28] of the same binder?
The value was -0.162.

And the “glycan array binding signal (z-score)” value [29]?
Its value is -0.737.

What about the “glycan array binding signal (z-score)” value [30] of the same binder?
The value was 0.107.

And the “glycan array binding signal (z-score)” value [31]?
The value was 2.29.

And the “glycan array binding signal (z-score)” value [32]?
Its value is 2.75.

And the “glycan array binding signal (z-score)” value [33]?
The value was 0.457.

What about the “glycan array binding signal (z-score)” value [34] of the same binder?
The value was 1.31.

What about the “glycan array binding signal (z-score)” value [35] of the same binder?
The value was -0.882.

What about the “glycan array binding signal (z-score)” value [36] of the same binder?
The value was 0.198.

And the “glycan array binding signal (z-score)” value [37]?
Its value is 1.17.

And the “glycan array binding signal (z-score)” value [38]?
Its value is 0.237.

What about the “glycan array binding signal (z-score)” value [39] of the same binder?
The value was -0.391.

What about the “glycan array binding signal (z-score)” value [40] of the same binder?
The value was 1.16.

And the “glycan array binding signal (z-score)” value [41]?
Its value is -0.045.

And the “glycan array binding signal (z-score)” value [42]?
The value was -0.78.

And the “glycan array binding signal (z-score)” value [43]?
The value was -0.255.
